Results are given in words; binding and its absence hold for the method and conditions named. Some results given as binding are weak or reduced against the parent protein; the word gives no strength.
Tests used:
[1] = target: C9 (human (endogenous in normal human serum)) (UniProt P02748); experiment: non-reducing SDS-PAGE and Western blot of C9 polymers in cell lysates; A549 cells incubated with purified C5b6 (5 µg, 2 h, 37°C), then 5% NHS as source of C7 to C9, pre-incubated without or with 12.5 to 50 µg ZIKV E; lysates on 8% gel under non-reducing conditions; anti-C9 neo-epitope WU 13-15
[2] = target: C9 (human (endogenous in normal human serum)) (UniProt P02748); experiment: non-reducing SDS-PAGE and Western blot of C9 polymers in cell lysates; A549 cells incubated with sublytic anti-human HLA-ABC (1:1,000) as activator of the classical pathway, then 5% NHS pre-incubated with different amounts of ZIKV E; lysates on non-reducing gel; anti-C9 neo-epitope WU 13-15

## C9 (from UniProt P02748 22-559)
[1]
  binding: binds
[2]
  binding: binds
